The data set in a line: physchem. As to conditions: pH 7.4, aqueous buffer, kinetic from dmso stock.

Each structure is given as a SMILES string.

The kinetic solubility is solubility judged after dilution from a stock solution rather than from solid.

`COc1cc2c(cc1OC)C(=O)C(CC1CCN(Cc3ccccc3)CC1)C2.Cl` (stereo not shown) [Donepezil Hydrochloride (E2020)]: the kinetic solubility is 175 µM.

The record behind these values is article PMC9019904, “AD Informer Set: Chemical tools to facilitate Alzheimer's disease drug discovery” (Alzheimer's & Dementia : Translational Research & Clinical …, 2022).
